In assay [1] the target is transcription factor E2f4 (endogenous, mouse) (mouse (endogenous in p19/Nras)) (UniProt Q8R0K9). The experiment in a line: affinity purification with mass spectrometry; IP of endogenous E2f4 (Proteintech 10923-1-AP) against isotype control IgG from TNT-150 lysates of Trim33-WT and Trim33-KO p19/Nras cells, LC-MS/MS, three independent reactions.
Assay [2] addresses transcription factor E2f4 (endogenous, mouse) (mouse (endogenous in p19/Nras)), Q8R0K9. The description is as above. Conditions: remark: other sources report otherwise.

The chains behind the UniProt entries cited, without tags or fusion partners.
UniProt Q8R0K9: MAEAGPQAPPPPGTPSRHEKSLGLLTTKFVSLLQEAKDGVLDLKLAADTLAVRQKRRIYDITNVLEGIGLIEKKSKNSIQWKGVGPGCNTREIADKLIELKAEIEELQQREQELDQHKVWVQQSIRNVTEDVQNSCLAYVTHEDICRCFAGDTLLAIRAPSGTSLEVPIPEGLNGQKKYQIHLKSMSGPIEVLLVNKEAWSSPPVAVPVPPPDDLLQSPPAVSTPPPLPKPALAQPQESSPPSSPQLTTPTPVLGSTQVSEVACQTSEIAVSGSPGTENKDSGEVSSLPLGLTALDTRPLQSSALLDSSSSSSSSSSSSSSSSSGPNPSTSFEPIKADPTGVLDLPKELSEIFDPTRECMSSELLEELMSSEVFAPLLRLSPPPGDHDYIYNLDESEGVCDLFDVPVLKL

Results are given in words; binding and its absence hold for the method and conditions named. Binding seen in cells or lysates may run through a third protein. A yes stands for co-enrichment or nearness to the bait. Other partners may have been found.

B1: Rbl1 (endogenous, mouse) (protein, UniProt Q64701 1-1063)
chain: MFEDEPHAEGAAAVAAAREALQALCQELNLDEGSAAEALDDFTAIRGNYSLEGEVIHWLACSLYVACRKSIIPTVGKGVMEGNCVSLTRILRSAKLSLIQFFSKMKKWMDMSNLPQEFRERIERLERNFEVSTVIFKKFEPIFLDIFQNPYEEPPKLPRSRKQRRIPCSVKDLFNFCWTLFVYTKGNFRMIGDDLVNSYHLLLCCLDLIFANAIMCPNRRDLLNPSFKGLPSDFHAPDFKAAEEPPCIIAVLCDLHDGLLVEAKGIKEHYFKPYISKLFDKKILKGECLLDLSSFTDNSKAVNKEYEEYVLTVGDFDERIFLGADAEEEIGTPRKFTADTPFGKLTSQASVECNLQQHFEKKRSFAPSTPLTGRRYLQEKEAVTTPVASATQSVSRLQSIVAGLKSAPSEQLLNIFESCMRNPMGNIIKIVKGIGETFCQHYTQSTDKQPGSHIDFAVNRLKLAEILYYKILETIMVQETRRLHGMDMSVLLEQDIFHKSLMACCLEIVLFAYSSPRTFPWIIEVLDLQPFYFYKVIEVVIRSEEGLSRDMVKHLNSIEEQILESLAWTNNSALWEALHASANRVPSCEEVIFPNNFEIGNGGNVQGHLPMMPMSPIIHPRVKEVRTDSGSLRQDMQPLSPISVHERYSSPAAGSAKRRLFGDDPPKDTLMDKIMAEGTKLKIAPSSVTAESLSISPGQALLTMATTTVTGTTGRKVTVPLHGIANDAGEITLVPISMNPTQESTAESPVSLTAQSLIGTSPKQTHLTKAQDAHLTGVSKPKRTGSLALFYRKVYHLASVRLRDLCLKLDVSNELRRKIWTCFEFTLVHCPDLMKDRHLDQLLLCAFYIMAKVTKEERTFQEIMKSYRNQPQANSHVYRSVLLKSIPGGVVVYNGDCEMTDGDIEDATKTPNCSSEPVKEERGDLIKFYNTVYVGRVKSFALKYDLSNQDHIMDAPPLSPFPHIKQQPGSPRRISQQHSLYVSPHKNGAGLTPRSALLYKFNGSPSKSLKDINNMIRQGEQKTKKRVIAISGDADSPAKRLCQENDDVLLKRLQDVVSERANH
For the molecule B1, the binding result in assay [1] is “binds”.

B2: Lin9 (endogenous, mouse), Q8C735 1-542 (protein)
chain: MAELDQLPDESSSAKALVSLKEGSLSNTWNEKYSSLQKTPVWKGRNAGPAVEMPFRNSKRSRLFSDEDDRQINTKSPKRNQRVAMIPQKFTATMSTPDKKASQKIGFRLRNLLKLPKAHKWCIYEWFYSNIDKPLFEGDNDFCVCLKESFPNLKTRKLTRVEWGKIRRLMGKPRRCSSAFFEEERSALKQKRQKIRLLQQRKVADVSQFKDLPDEIPLPLVIGTKVTARLRGIHDGLFTGQIDAVDTLNATYRVTFDRTGLGTHTIPDYEVLSNEPHETMPISAFGQKQRPSRFFMTPPRLHYTPPLQSPITDGDPLLGQSPWRSKVSGSDTETLGGFPVEFLIQVTKLSKILMIKKEHIKKLREMNTEAEKLKSYSMPIGIEFQRRYATIVLELEQLNKDLNKVLHKVQQYCYELAPDQGLQPADQPTDMRRRCEEEAQEIVRQANSASGQPCVENENLTDLISRLTAILLQIKCLAEGGDLNSFEFKSLTDSLNDIKNTIDASNISCFQNNVEIHVAHIQSGLSQMGNLHAFAANNTNRD
For B2, the binding result in assay [2] is given as “binds”.

B3: Recql DNA helicase (endogenous, mouse) (protein, UniProt Q9Z129 1-648)
chain: MASVSALTEELESVASELHAIDIQIQELTERRQELLQRKSVLTGKIKQYLEDSSAEASSDLDTSPAAWNKEDFPWFGKVKDVLQNVFKLQKFRPLQLETINVTMARKDIFLVMPTGGGKSLCYQLPALCSDGFTLVICPLISLMEDQLMVLKQLGISATMLNASSSKEHVKWVHAEMVNKNSQLKLIYVTPEKIAKSKMFMSRLEKAYEAGRLTGAAVDEVHCCSQWGHDFRPDYKALGILKRQFPNASLMGLTATATNHVLKDVQKILCVGKCLTFTASFNRPNLFYEVRQKPSSAEDFTEDIVKLINGRYKGQSGIIYCFSQKDSEQITISLQKLGIHAGTYHANMEPEDKTKVHTQWSANELQVVVATVAFGMGIDKPDVRFVIHHSMSKSMENYYQESGRAGRDDSRADCILYYGFGDIFRISSMVVMENVGQQKLYEMVSYCQNVSKCRRVLIAQHFDEVWNADACNKMCDNCCKDVSFEKKNVTQHCRDLIKILKQAEGLNEKLTPLKLIDAWMGKGAAKLRVAGVVAPALPREDLERIVAHALLQQYLKEDYSFTAYATISYLKVGPRACLLSNEAHAVTMQVKKSAQSSVRGALSEARQVEQVDSKGEEQSSGNSQKSKSRLQPSGSKNAGAKKRKLDDA
On to B3, for which the binding result in assay [1] is “binds”.

B4: Lin54 (endogenous, mouse) (protein, UniProt Q571G4 1-749)
chain: MEVVPAEVNSLLPDDIMDTAITLVDEDSIEAVIVSSPIPMETELEEIVNINSTGDSTATPISTEPITVYSNHTNQVAVNTTVSKADSNTTVKPAFPSGLQKLGAQTPVTISANQIILNKVSQTSDLKLGNQTLKPDGQKLILTTLGKSGSPIVLALPHSQLPQAQKVTAQAQPGDAKLPPQQIKVVTIGGRPEVKPVIGVSALTPGSQLINTTTQPSVLQTQQLKTVQIAKKPRTPTSGPVITKLIFAKPINSKAVTGQTTQASPPVVTGRVLSQSTPGTPSKTITISESGVIGSTLNSTTQTPNKIAISPLKSPNKTVKSAVQTITVGGMSTSQFKTIIPLATAPNVQQIQVPGSKFHYVRLVTATTASSSAQPVSQSPSVNTQPLQQAKPVVVNTTPVRMSVPFVQAQAVKQVVPKPINSTSQIVTTSQPQQRLIMPATPLPQIQPNLTNLPPGTVLAPAPGTGNVGYAVLPAQYVTQLQQSSYVSIASNSNFTGTSGIQTQARLPFNGIIPSESTSRPRKPCNCTKSLCLKLYCDCFANGEFCNNCNCTNCYNNLEHENERQKAIKACLDRNPEAFKPKIGKGKEGESDRRHSKGCNCKRSGCLKNYCECYEAKIMCSSICKCIGCKNFEESPERKTLMHLADAAEVRVQQQTAAKTKLSSQISDLLTRPTPALNSAGGKLPFTFVTKEVAEATCNCLLAQAEQADKKGKSKAAAERMILEEFGRCLMSVINSAGKAKSDPCAMHC
As for B4, the binding result in assay [1] is given as “binds”.

B5: Rbl2 (endogenous, mouse) (protein, UniProt Q64700 1-1135)
chain: MASGGNQSPPPPPAAAASSEEEEEDGDAADRAQPAGSPSHQIQQRFEELCSRLNMDEAARAEAWSSYRSMSESYTLEGNDLHWLACALYVACRKSVPTVSKGTAEGNYVSLTRILRCSEQSLIEFFNKMKKWEDMANLPPHFRERTERLERNFTVSAVIFKKYEPIFQDIFKYPQEEQPRQQRGRKQRRQPCTTSEIFHFCWVLFIYAKGNFPMISDDLVNSYHLLLCALDLVYGNALQCSNRKELVNPNFKGLSEDCHPKDSKASSDPPCVIEKLCSLHDGLVLEAKGIKEHFWKPYIRKLFEKKLLKGKEENLTGFLEPGNFGESFKAVNKAYEEYVLAAGNLDERVFLGEDAEEEVGTLSRCLSAASGTESAERTQMRDILQQHLDKSKALRVCTPLTGVRYVQENSPCVTPVSTAAHSLSRLHTMLSGLRNAPSEKLERILRSCSRDPTQAIADRLKEMYEIYSQHFQPDENFSNCAKEIANKHFRFAEMLYYKVLESVIEQEQKRLGDMDLSGVLEHDAFHRSLLACCLEVVAFSHKPPGNFPFIAEIFDVPHYHFYKVIEVFIRAEDGLCREVVKHLNQIEEQILDHLAWKTKSPLWDRIRDNENRVPTCEEVMPPQNLERTDEIYIAGSPLTPRRVGEVRADAGGLGRSITSPTTLYDRYSSPTVSTTRRRLFENDSPSEGSTSGRIPPQPLVNAVPVQNVPGETVSVTPVPGQTLVTMATATVTANNGQTVTIPVQGIANENGGITFFPVQVNVGGQAQAVAGSIQPLSAQALAGSLSSQQVTGTTLQVPGPVAIQQISPGGQQQNPGQPLTSSSIRPRKTSSLALFFRKVYYLAGVRLRDLCIKLDISDELRKKIWTCFEFSIIQCTELMMDRHLDQLLMCAIYVMAKVTKEDRSFQNIMRCYRTQPQARSQVYRSVLIKGKRRNSGSSESRSHQNSPTELNTDRASRDSSPVMRSNSTLPVPQPSSAPPTPTRLTGASSDVEEEERGDLIQFYNNIYRKQIQAFAMKYSQANAQTDTPPLSPYPFVRTGSPRRVQLSQSHPIYISPHNNEAMPSPREKIFYYFSNSPSKRLREINSMIRTGETPTKKRGILLDDGSESPAKRICPENHSALLRRLQDVANDRGSQ
As for B5, in assay [1], the binding result is “binds”.

B6: Dp1 (endogenous, mouse) (protein, UniProt Q08639 1-410)
chain: MAKDASLIEANGELKVFIDQNLSPGKGVVSLVAVHPSTVNTLGKQLLPKTFGQSNVNITQQVVIGTPQRPAASNTIVVGSPHTPNTHFVSQNQTSDSSPWSAGKRNRKGEKNGKGLRHFSMKVCEKVQRKGTTSYNEVADELVAEFSAADNHILPNESAYDQKNIRRRVYDALNVLMAMNIISKEKKEIKWIGLPTNSAQECQNLEVERQRRLERIKQKQSQLQELILQQIAFKNLVQRNRQAEQQARRPPPPNSVIHLPFIIVNTSRKTVIDCSISNDKFEYLFNFDNTFEIHDDIEVLKRMGMACGLESGNCSAEDLKVARSLVPKALEPYVTEMAQGSIGGVFVTTTGSTSNGTRLSASDLSNGADGMLATSSNGSQYSGSRVETPVSYVGEDDDDDDDFNENDEED
B6: in assay [1], the binding result is listed as “binds”.

B7: Dp2 (endogenous, mouse) (protein, UniProt Q64163 1-446)
chain: MTAKNVGLPSTNAKLRGFIDQNFSPSKGNISLVAFPVSSTNSPTKILPKTLGPINVNVGPQMIISTPQRIANSGSVLIGNPYTPAPAMVTQTHIAEAAGWVPSDRKRAREFIDSDFSESKRSKKGDKNGKGLRHFSMKVCEKVQRKGTTSYNEVADELVSEFTNSNNHLAADSAYDQENIRRRVYDALNVLMAMNIISSLPTGKKRNQVDCNSAQECQNLEIEKQRRIERIKQKRAQLQELLLQQIAFKNLVQRNRQNEQQNQGPPAVNSTIQLPFIIINTSRKTVIDCSISSDKFEYLFNFDNTFEIHDDIEVLKRMGMSFGLESGKCSLEDLKIARSLVPKALEGYITDISTGPSWLNQGLLLNSTQSVSNLDPTTGATVPQSSVNQGLCLDAEVALATGQLPASNSHQSSSAASHFSESRGETPCSFNDEDEEDEEEDPSSPE
Regarding B7, the binding entry in assay [1] is “binds”.

The values above are taken from publication PMC10447549.
